Assay results as given in paper PMC13016607.

T1: Bendless (Ben), the Drosophila homolog of mammalian Ubc13 (D. melanogaster) (UniProt P35128)
T1 sequence: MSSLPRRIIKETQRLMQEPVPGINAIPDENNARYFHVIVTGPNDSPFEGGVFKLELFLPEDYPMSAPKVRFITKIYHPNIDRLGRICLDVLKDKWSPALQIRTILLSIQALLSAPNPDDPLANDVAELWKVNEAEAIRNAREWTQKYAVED

T2: Fzy (D. melanogaster) (UniProt Q24044)
T2 sequence: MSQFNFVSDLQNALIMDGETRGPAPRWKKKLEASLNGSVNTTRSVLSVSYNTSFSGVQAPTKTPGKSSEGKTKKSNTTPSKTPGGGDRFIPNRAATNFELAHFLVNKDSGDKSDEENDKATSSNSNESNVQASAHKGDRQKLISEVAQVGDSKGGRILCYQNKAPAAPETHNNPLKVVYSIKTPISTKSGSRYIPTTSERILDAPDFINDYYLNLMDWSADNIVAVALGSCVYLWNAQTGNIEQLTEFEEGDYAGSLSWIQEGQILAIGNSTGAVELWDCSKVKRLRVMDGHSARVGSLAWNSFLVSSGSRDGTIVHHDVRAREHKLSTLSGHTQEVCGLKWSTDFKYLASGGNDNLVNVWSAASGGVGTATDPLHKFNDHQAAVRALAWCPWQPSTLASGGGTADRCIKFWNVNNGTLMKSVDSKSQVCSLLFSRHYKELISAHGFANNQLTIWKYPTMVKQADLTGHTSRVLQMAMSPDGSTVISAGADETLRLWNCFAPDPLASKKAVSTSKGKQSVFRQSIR


How the values were obtained:
Assay in all cases: co-IP; tagged proteins co-expressed in Drosophila S2 cells (act-GAL4); NP-40 lysis buffer with protease inhibitors, 4°C; primary antibodies 3 hr, Protein G Sepharose 2 hr; five washes; western blotting
[1] = biological target: T1, Bendless (Ben), the Drosophila homolog of mammalian Ubc13 (D. melanogaster)
[2] = biological target: T2, Fzy (D. melanogaster)
[3] = biological target: Cell division cycle 27 (Cdc27, Drosophila APC3) (D. melanogaster)

Row | binding [1] | binding [2] | binding [3] | Molecule
1 | binds | no binding | – | Uev1A (D. melanogaster)
2 | – | – | no binding | Bendless (Ben), the Drosophila homolog of mammalian Ubc13 (enzyme, UniProt P35128 1-151) MSSLPRRIIKETQRLMQEPVPGINAIPDENNARYFHVIVTGPNDSPFEGGVFKLELFLPEDYPMSAPKVRFITKIYHPNIDRLGRICLDVLKDKWSPALQIRTILLSIQALLSAPNPDDPLANDVAELWKVNEAEAIRNAREWTQKYAVED

Results are given in words; binding and its absence hold for the method and conditions named. In cells and extracts the contact can be indirect. For part of these data: Binding calls can cover weak binding; strength is not graded here.
